Sequences and labels used below:
B1: il10ra_site1_normal_mot_HHH_b1_02809_af2_000000277_0001_40_57_H_._HHH_b1_05309_af2_0001_0000100001_0000003_0_af2pred_0001 (protein)
chain: SSSSSSDRDERSIRILIEAAKRIEDEEEARTALEFALRLAEALGDEELQEEVERLLEEISSSSSS
B2: il10ra_site1_normal_mot_HHH_b1_02062_000000185_0001_1_20_H_._HHH_b2_01313_0001_0000300018_0000001_0 (protein)
chain: SSSSSREAYELSRRAAEALSEGNYEEAEELAEEAFRIAEEENNEVVLHTIEYLLRVLRRRGSSSS
B3: il10ra_site1_normal_mot_HHH_b2_03220_af2_000000223_0001_23_40_H_._HHH_b1_06679_0001_0000100002_0000002_0_af2pred_dldesign_0_af2pred (protein)
chain: SSSSSNQDVLDLILRVRELIAAGRYEEARRLLEEARALAAALGSELFDGPLARLEAEIEAASSSS
B4: il10ra_site1_sap_15_mot_7abaf38a3307e851c9e6880adce6b300_0001_1_af2_000000155_0001_1_14_H_._HHH_b1_06012_0001_0000600024_0000001_0_0001 (protein)
chain: SSSSSEEEERIEQLIEEAEEVLEEGNPQKAIELLLEAVRLALRASDPELLRRIWKLIKEVASSSS
B5: il10ra_site1_normal_mot_HHH_b2_03220_af2_000000223_0001_23_40_H_._HHH_b1_05348_af2_0001_0000100005_0000001_0 (protein)
chain: SSSSSSEENEEVWRLIREALEVAEKDPEEAKEILEEAEKLAEEANNPLLQIQLRFLLRQLSSSSS
B6: il10ra_site1_sap_17_mot_HHH_b2_03425_000000200_0001_22_39_H_._HHH_b1_03616_0002_0000100007_0000001_1_0001 (protein)
chain: SSSNAAEEVWELLRKALELRARGDEEEAEEVVEEAEEIAREGGDRVMEVVIEFLLEQIRRLSSSS
B7: il10ra_site1_sap_14_mot_HHH_b1_01307_000000115_0001_1_18_H_._HHH_b2_00988_0001_0000300026_0000001_0_0001 (protein)
chain: SSSSSDHEDNRRIYELIQRAFEISDEEERRELLEEAQELAEELGNQLFLFAVRAAQRALLSSSSS
B8: il10ra_site1_sap_14_mot_HHH_b2_00943_af2_000000149_0001_1_17_H_._HHH_b1_08763_0001_0000100006_0000002_0_0001 (protein)
chain: SSSSDEAKQRAEELLEEAEELVEKGDPREALRVLAEAVKVALEGGDEELLQEIWRVIKEASSSSS
B9: il10ra_site1_sap_20_mot_HHH_b1_08009_000000194_0001_1_19_H_._HHH_b1_07350_0001_0000800039_0000001_0_0001 (protein)
chain: SSSSSSDYERSVKTMVKAARQLEDPEYARLALRFALAIAEAGNDEELQEEVRELLEELSSSSSSS
B10: il10ra_site1_normal_mot_HHH_b1_03333_000000091_0001_1_17_H_._HHH_b2_08380_af2_0001_0000300029_0000001_0 (protein)
chain: SSSSDEEFYEEVRRAIEKAVELQRNGNPEEAERLLEEVLEKAEELGNFAAAWAIRHLLRLLSSSS
B11: il10ra_site1_normal_mot_HHH_b2_02053_af2_000000006_0001_3_19_H_._HHH_b2_00530_af2_0001_0000300012_0000001_0 (protein)
chain: SSSSSSNEAERIYELLRRALQIDDEEEARELLEEAEELAKELGSEVAEITIRYALRQLSSSSSSS
B12: il10ra_site1_normal_mot_HHH_b1_02062_000000185_0001_1_20_H_._HHH_b1_06709_0001_0000300031_0000002_0 (protein)
chain: SSSSTSEEIYRLSRELAEAISEGDEELIEELLEEIRRLIEELGNLNLRFILEFLEKDARASSSSS
B13: il10ra_site1_sap_20_mot_HHH_b1_02766_af2_000000078_0001_42_56_H_._HHH_b2_04892_0001_0001000047_0000001_0_0001 (protein)
chain: SSSSDELSEEAMKLIERASELDQNGNPEEAKEVLERAEELAEEAGNRVLAWNIRFLLRRLSSSSS
B14: il10ra_site1_sap_22_mot_HHH_b2_04681_000000155_0001_43_57_H_._HHH_b2_03205_0001_0000100004_0000002_0_0001 (protein)
chain: SSSSSDEEEVEELLRRAEELRERGNPEEAAELLQRAVRIAAQAQNEELLREIWEVVKRLGSSSSS
B15: il10ra_site1_sap_17_mot_HHH_b2_04976_af2_000000223_0001_1_17_H_._HHH_b1_00122_0001_0000100010_0000002_0_0001 (protein)
chain: SSSSSDDERYVELALRFAEWLIEAGDPRAARIVLRVALRLAEEINNPELFERIEELLEELSSSSS
B16: il10ra_site1_normal_mot_HHH_b1_00999_000000080_0001_41_55_H_._HHH_b1_07298_0001_0000400050_0000001_1 (protein)
chain: SSSSDYEEEVKELLEELRRLLEEGDREKFLRLVLRVLRLILRNNDAELLQELWEIVREWGKSSSS
B17: il10ra_site1_normal_mot_HHH_b1_08622_000000192_0001_23_40_H_._HHH_b1_00172_0001_0000200022_0000001_0 (protein)
chain: SSSSSSALESLRWALEIAVEDGNEELLKKLLEYARRVLENLDEEEREQLEELLELAEEALSSSSS
B18: il10ra_site1_normal_mot_0750aae41c39e4229e2ea8fa354cc919_0001_1_000000144_0001_37_51_H_._HHH_b1_03276_0001_0000200009_0000001_0_af2pred_0001 (protein)
chain: SSSDAEQALLAAEVALRILLEDGNPERAQRALHFWAHLDEAAGNPELAEELREIFERLEEELSSS
B19: il10ra_site1_normal_mot_HHH_b1_05056_000000217_0001_1_20_H_._HHH_b2_04661_af2_0001_0000200010_0000002_0 (protein)
chain: SSSSDEEELEELLEELERLAKEGDRERFLRLVLRLSELIFRLGDEEALQLLWELVQRFARRSSSS
B20: il10ra_site1_sap_22_mot_HHH_b1_06577_000000038_0001_1_17_H_._7e5d6dae1157c95132ff0874b0fd9e6b_0001_1_af2_0001_0000900038_0000001_0_0001 (protein)
chain: SSSSSDEQQKLLELLKRAFRLALRGNPEEAKELLEEAEELAEELGDERALKMVRDLLRSLSSSSS
B21: il10ra_site1_normal_mot_8756ee2cf497b5429c717dfc0c0bcfd6_0001_000000186_0001_1_13_H_._HHH_b1_07134_af2_0001_0000300016_0000001_0_af2pred_0001 (protein)
chain: SSSSSEELRELIKLSRRLVELSLEGDEEEFEKLFEEAERIARELNDELALFLLESLERKFNSSSS
B22: il10ra_site1_sap_15_mot_HHH_b1_04592_af2_000000261_0001_39_52_H_._HHH_b1_07996_0001_0000100010_0000001_0_0001 (protein)
chain: SSSSETEKAARIAMEAVRLAIQLGDEEIFQELWELFKLVIREGDPEVTERLEELLEELRERSSSS
B23: il10ra_site1_normal_mot_HHH_b1_05357_000000034_0001_23_39_H_._HHH_b1_01707_af2_0001_0000200005_0000002_0 (protein)
chain: SSSSDEEERRRLEEEVERALEEGDPELASHIVIQLYALAHQLNDPELEELAKELARLVAQLSSSS
B24: il10ra_site1_sap_21_mot_HHH_b1_07286_af2_000000054_0001_1_19_H_._HHH_b2_02163_0001_0000200006_0000001_0_0001 (protein)
chain: SSSSSIERSLEHMLKAIKRALELGDQEYARRALRFVKWSAKWANDEEVEEEVKELEKELESSSSS

Some of the results follow. Where only a bound is given, the exact number is not on record here.

As a reminder, the apparent Kd is the concentration giving half-maximal binding under the conditions of the assay.

This assay addresses il10ra, Q13651. Nature of the assay: yeast display titration.
Take B1: the “apparent Kd” value is “inactive: no binding seen”. For B2, the “apparent Kd” value was “inactive: no binding seen”. The same measure for B3: “inactive: no binding seen”; for B4: “inactive: no binding seen”.

Take B5: the “apparent Kd” value was “inactive: no binding seen”.

With B6, the apparent Kd is inactive: > 607 nM. For B7, the “apparent Kd” value is “inactive: no binding seen”. As for B8, the entry is “inactive: no binding seen”; as for B9, “inactive: no binding seen”. B10: the “apparent Kd” value was “inactive: no binding seen”. As for B11, the entry is “inactive: no binding seen”; as for B12, “inactive: no binding seen”; as for B13, “inactive: no binding seen”.

B14: the “apparent Kd” value is “inactive: no binding seen”. The same measure for B15: “inactive: no binding seen”; for B16: “inactive: no binding seen”. As for B17, the entry is “inactive: no binding seen”; as for B18, “inactive: no binding seen”; as for B19, “inactive: no binding seen”.

Regarding B20, the “apparent Kd” value is “inactive: no binding seen”. Regarding B21, the “apparent Kd” value was “inactive: no binding seen”.

Consider B22, for which the “apparent Kd” value was “inactive: no binding seen”. As for B23, the entry is “inactive: no binding seen”; as for B24, “inactive: no binding seen”.

Source of the values: article PMC10163288.
